The assay addresses heterogeneous nuclear ribonucleoprotein A2B1 (human (endogenous in HepG2.2.15, HepAD38, HepG2)) (UniProt P22626). Briefly: co-IP; HepG2.2.15, HepAD38 and HepG2 cells cultured with PAC5 (2 μmol/L) for the indicated time; lysates (RIPA buffer) immunoprecipitated with anti-hnRNPA2B1 or IgG at 4 °C overnight, protein A/G agarose; IRF3, TBK1, hnRNPA2B1 examined by western blotting.

By UniProt entry, the sequences of proteins in these tests, tags left out.
UniProt P22626: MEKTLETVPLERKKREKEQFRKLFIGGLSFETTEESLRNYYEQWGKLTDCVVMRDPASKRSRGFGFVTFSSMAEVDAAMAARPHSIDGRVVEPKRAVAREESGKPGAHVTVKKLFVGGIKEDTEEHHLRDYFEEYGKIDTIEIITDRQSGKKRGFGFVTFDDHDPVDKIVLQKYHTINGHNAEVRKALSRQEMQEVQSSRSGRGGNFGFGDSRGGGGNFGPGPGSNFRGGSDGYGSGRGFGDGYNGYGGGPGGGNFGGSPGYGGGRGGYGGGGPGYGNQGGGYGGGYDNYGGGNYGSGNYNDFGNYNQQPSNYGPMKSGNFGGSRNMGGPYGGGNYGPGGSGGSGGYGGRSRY

This note sets out measurements from article PMC9871967.

Results are given in words; binding and its absence hold for the method and conditions named. In cells and extracts the contact can be indirect. Some binding calls cover weakened binding; strength is not graded here.

B1: TANK-binding kinase 1 (enzyme, UniProt Q9UHD2 1-729)
chain: MQSTSNHLWLLSDILGQGATANVFRGRHKKTGDLFAIKVFNNISFLRPVDVQMREFEVLKKLNHKNIVKLFAIEEETTTRHKVLIMEFCPCGSLYTVLEEPSNAYGLPESEFLIVLRDVVGGMNHLRENGIVHRDIKPGNIMRVIGEDGQSVYKLTDFGAARELEDDEQFVSLYGTEEYLHPDMYERAVLRKDHQKKYGATVDLWSIGVTFYHAATGSLPFRPFEGPRRNKEVMYKIITGKPSGAISGVQKAENGPIDWSGDMPVSCSLSRGLQVLLTPVLANILEADQEKCWGFDQFFAETSDILHRMVIHVFSLQQMTAHKIYIHSYNTATIFHELVYKQTKIISSNQELIYEGRRLVLEPGRLAQHFPKTTEENPIFVVSREPLNTIGLIYEKISLPKVHPRYDLDGDASMAKAITGVVCYACRIASTLLLYQELMRKGIRWLIELIKDDYNETVHKKTEVVITLDFCIRNIEKTVKVYEKLMKINLEAAELGEISDIHTKLLRLSSSQGTIETSLQDIDSRLSPGGSLADAWAHQEGTHPKDRNVEKLQVLLNCMTEIYYQFKKDKAERRLAYNEEQIHKFDKQKLYYHATKAMTHFTDECVKKYEAFLNKSEEWIRKMLHLRKQLLSLTNQCFDIEEEVSKYQEYTNELQETLPQKMFTASSGIKHTMTPIYPSSNTLVEMTLGMKKLKEEMEGVVKELAENNHILERFGSLTMDGGLRNVDCL
Consider B1, for which the binding entry is listed as “binds”.

B2: IFN regulatory factor 3 (protein, UniProt Q14653 1-427)
chain: MGTPKPRILPWLVSQLDLGQLEGVAWVNKSRTRFRIPWKHGLRQDAQQEDFGIFQAWAEATGAYVPGRDKPDLPTWKRNFRSALNRKEGLRLAEDRSKDPHDPHKIYEFVNSGVGDFSQPDTSPDTNGGGSTSDTQEDILDELLGNMVLAPLPDPGPPSLAVAPEPCPQPLRSPSLDNPTPFPNLGPSENPLKRLLVPGEEWEFEVTAFYRGRQVFQQTISCPEGLRLVGSEVGDRTLPGWPVTLPDPGMSLTDRGVMSYVRHVLSCLGGGLALWRAGQWLWAQRLGHCHTYWAVSEELLPNSGHGPDGEVPKDKEGGVFDLGPFIVDLITFTEGSGRSPRYALWFCVGESWPQDQPWTKRLVMVKVVPTCLRALVEMARVGGASSLENTVDLHISNSHPLSLTSDQYKAYLQDLVEGMDFQGPGES
For the molecule B2, the binding result is “binds”.
